Data taken from publication doi:10.1101/2025.09.16.676506.

Protein sequences, listed by entry. Tags and fused reporters are not part of them. Lines headed by an entry give the natural chain unless they say otherwise; changes in a name come on top.
UniProt P26648: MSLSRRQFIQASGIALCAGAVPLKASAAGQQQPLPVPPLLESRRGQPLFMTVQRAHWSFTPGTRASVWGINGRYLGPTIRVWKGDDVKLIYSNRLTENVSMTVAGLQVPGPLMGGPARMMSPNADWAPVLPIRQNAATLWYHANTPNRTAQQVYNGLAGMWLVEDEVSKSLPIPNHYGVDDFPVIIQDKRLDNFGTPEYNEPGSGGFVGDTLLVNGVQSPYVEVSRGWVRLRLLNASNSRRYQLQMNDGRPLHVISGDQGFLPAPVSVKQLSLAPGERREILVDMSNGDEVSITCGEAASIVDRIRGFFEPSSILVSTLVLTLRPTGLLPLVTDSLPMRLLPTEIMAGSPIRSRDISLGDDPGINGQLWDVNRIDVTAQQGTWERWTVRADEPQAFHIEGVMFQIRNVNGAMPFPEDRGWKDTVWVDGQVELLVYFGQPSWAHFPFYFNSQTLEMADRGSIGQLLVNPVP

Target: SufI–8×His (E. coli) (UniProt P26648)
Assay: pull-down

binding: binds
B1: TatA (protein, UniProt P69428 1-89)
chain: MGGISIWQLLIIAVIVVLLFGTKKLGSIGSDLGASIKGFKKAMSDDEPKQDKTSQDADFTAKTIADKQADTNQEQAKTEDAKRHDKEQV

Results are given in words; binding and its absence hold for the method and conditions named. In cells and extracts the contact can be indirect. Binding calls can cover weak binding; strength is not graded here.
